Article PMC10562466

Assays:
[1] = target: AKT, endogenous (human (endogenous in T24 and UMUC3)); assay: co-IP; endogenous proteins in T24 and UMUC3 cell lysate; antibody-conjugated magnetic beads, overnight at 4 °C; also after CDCA8 knock-down or PTEN knock-down
AKT, HA-tagged = assay: co-IP; exogenous tagged proteins (3xFlag-CDCA8 constructs, HA-AKT, GFP-PTEN) overexpressed in 293 T cells; antibody-conjugated magnetic beads, overnight at 4 °C
[2] = target: AKT, recombinant protein of the GST-pulldown assay; assay: pull-down; GST-fused protein on glutathione-Sepharose beads incubated with recombinant His-tagged protein at 4 °C for 2 h; immunoblotting; both purified

B1: cell cycle division-related gene 8 (CDCA8) protein, endogenous (protein, UniProt Q53HL2 1-280)
chain: MAPRKGSSRVAKTNSLRRRKLASFLKDFDREVEIRIKQIESDRQNLLKEVDNLYNIEILRLPKALREMNWLDYFALGGNKQALEEAATADLDITEINKLTAEAIQTPLKSAKTRKVIQVDEMIVEEEEEEENERKNLQTARVKRCPPSKKRTQSIQGKGKGKRSSRANTVTPAVGRLEVSMVKPTPGLTPRFDSRVFKTPGLRTPAAGERIYNISGNGSPLADSKEIFLTVPVGGGESLRLLASDLQRHSIAQLDPEALGNIKKLSNRLAQICSSIRTHK
B1 was tested, and the binding [1] was “binds”.

B2: CDCA8 full-length (CDCA8-FL), 3x Flag-tagged (protein, UniProt Q53HL2 1-280)
chain: MAPRKGSSRVAKTNSLRRRKLASFLKDFDREVEIRIKQIESDRQNLLKEVDNLYNIEILRLPKALREMNWLDYFALGGNKQALEEAATADLDITEINKLTAEAIQTPLKSAKTRKVIQVDEMIVEEEEEEENERKNLQTARVKRCPPSKKRTQSIQGKGKGKRSSRANTVTPAVGRLEVSMVKPTPGLTPRFDSRVFKTPGLRTPAAGERIYNISGNGSPLADSKEIFLTVPVGGGESLRLLASDLQRHSIAQLDPEALGNIKKLSNRLAQICSSIRTHK
With B2 the binding (AKT, HA-tagged) was “binds”.

B3: CDCA8, recombinant protein of the GST-pulldown assay (protein, UniProt Q53HL2 1-280)
chain: MAPRKGSSRVAKTNSLRRRKLASFLKDFDREVEIRIKQIESDRQNLLKEVDNLYNIEILRLPKALREMNWLDYFALGGNKQALEEAATADLDITEINKLTAEAIQTPLKSAKTRKVIQVDEMIVEEEEEEENERKNLQTARVKRCPPSKKRTQSIQGKGKGKRSSRANTVTPAVGRLEVSMVKPTPGLTPRFDSRVFKTPGLRTPAAGERIYNISGNGSPLADSKEIFLTVPVGGGESLRLLASDLQRHSIAQLDPEALGNIKKLSNRLAQICSSIRTHK
With B3 the binding [2] was “binds”.

No constants are given. Whether binding was seen depends on the method and setting. A result given as binding can be weak or reduced; the word gives no strength. For part of these data: Tags and fused reporters may be left off the sequences shown. For part of these data: Binding seen in cells or lysates may run through a third protein.
